This test has as its system L1210 leukemia ip in BDF1 mice, survival T/C. The test can be described thus: NCI In Vivo Anticancer Drug Screen. Data for tumor model L1210 Leukemia (intraperitoneal) in B6D2F1 (BDF1) mice. As to conditions: T/C endpoint: mean survival time, higher T/C = longer survival.
[1] abbreviates: dose: 100.0 mg/kg/injection, schedule: Q01DX009 (ip), vehicle: Klucel (hydroxypropylcellulose) (HPC).
Where [2] appears, read: dose: 200.0 mg/kg/injection, schedule: Q01DX009 (ip), vehicle: Klucel (hydroxypropylcellulose) (HPC).
The mark [3] stands for this setting: dose: 400.0 mg/kg/injection, schedule: Q04DX003 (ip), vehicle: Klucel (hydroxypropylcellulose) (HPC).
[4] abbreviates: dose: 400.0 mg/kg/injection, schedule: Q04DX003 (ip), vehicle: saline.
Where [5] appears, read: dose: 50.0 mg/kg/injection, schedule: Q01DX009 (ip), vehicle: Klucel (hydroxypropylcellulose) (HPC).
Setting [6] is: dose: 400.0 mg/kg/injection, schedule: Q01DX009 (ip), vehicle: Klucel (hydroxypropylcellulose) (HPC).
Setting [7] is: dose: 400.0 mg/kg/injection, schedule: Q01DX001 (ip), vehicle: saline.
Where [8] appears, read: dose: 400.0 mg/kg/injection, schedule: Q04DX003 (ip), vehicle: saline with Tween-80.
The mark [9] stands for this setting: dose: 200.0 mg/kg/injection, schedule: Q01DX001 (ip), vehicle: saline.

The list shows only some results of the screen, not a fair sample: it is rich in T/C values a quarter to a half above the control, in often repeated tests (any T/C) and in doses without a T/C. Other doses and runs of a compound stand elsewhere. T/C gives the treated animals as a percentage of the vehicle group. Some doses have a count of surviving animals in place of a T/C: the source holds a T/C of zero for them, seemingly a mark for toxic or unscored doses. Some survivor counts are full or nearly so, which does not show that the dose was tolerated: the source hardly ever lists a survival T/C far under the control, and the zero likely stands for such cases as well. Counts of survivors are from the toxicity check (mostly the fifth day) where no day follows; animals may have died later. Schedules are NCI's codes, taken here to give the interval after Q, in days (D) or hours (H), and the number of doses after X. Some schedule codes hold Z or #, which are not explained here. Some molecules as drawn cover several salts, stereoisomers or complexes of the source; a dose is that of the sample tested. Where survival is the endpoint, the PubChem record calls one and a half times the control and up active, and a quarter to a half above the control has no call in these data; cut-offs in other NCI protocols can differ.

`CC(=O)OC1=NC(C)c2c1cc(OC(C)=O)[nH]c2=O` (configuration not stated): the survivor count under setting [1] was 6 of 6, the survivor count under setting [2] was 2 of 6 and the survivor count under setting [3] is given as 3 of 6.
Regarding `Cc1ccc(C)c2c1CC(C(=O)O)CC2C` (configuration not stated), the survivor count under setting [4] is given as 3 of 7.
Turning to `COc1ccc2c(c1OC)C1C3CC=CC3C2C2=[N+]1CCc1cc3c(cc12)OCO3` (configuration not stated), the survivor count is recorded as 3 of 6 (dose: 25.0 mg/kg/injection, schedule: Q01DX009 (ip), vehicle: saline) and 0 of 6 (dose: 50.0 mg/kg/injection, schedule: Q01DX009 (ip), vehicle: saline).
As for `CN(C)CC1C2C=CC(C2)C1CN(C)C` (configuration not stated), the survivor count under setting [4] was 0 of 6.
Take `Cn1cnc([N+](=O)[O-])c1S(=O)(=O)NCN1CCOCC1`: the survivor count is given as 6 of 6 (dose: 12.5 mg/kg/injection, schedule: Q01DX009 (ip), vehicle: Klucel (hydroxypropylcellulose) (HPC)) and 2 of 6 under setting [6]. The T/C under setting [5] is 130 % of control.
As for `CCC(C)C(C)C(C)=O` (configuration not stated), the survivor count under setting [7] is given as 2 of 4.
For the compound `Cc1ccc(NN)cc1Cl`, under setting [3], the survivor count is reported as 0 of 6.
Take `c1ccc(C2=NCCCO2)cc1`: the survivor count reads like this: (dose: 200.0 mg/kg/injection, schedule: Q04DX003 (ip), vehicle: saline) 0 of 6; under setting [4], 0 of 6.
Turning to `C/C=C/C=C/C(=O)NO`, the T/C is 134 % of control (dose: 266.0 mg/kg/injection, schedule: Q01DX009 (ip), vehicle: carboxymethylcellulose (CMC)); 134 % of control under setting [6]; 134 % of control (dose: 400.0 mg/kg/injection, schedule: Q01DX009 (ip), vehicle: carboxymethylcellulose (CMC)); 134 % of control (dose: 600.0 mg/kg/injection, schedule: Q01DX009 (ip), vehicle: carboxymethylcellulose (CMC)).
With `N=C(N)N=Nc1c(O)[nH]c2ccccc12`, the survivor count was 6 of 6 (dose: 300.0 mg/kg/injection, schedule: Q01DX Z (oral), vehicle: carboxymethylcellulose (CMC)); 0 of 6 (dose: 480.0 mg/kg/injection, schedule: Q01DX Z (oral), vehicle: other); 0 of 6 (dose: 960.0 mg/kg/injection, schedule: Q01DX Z (oral), vehicle: other).
Take `Cc1cccnc1C(=O)O`: the survivor count under setting [7] is reported as 1 of 4.
As to `O=CCSC(=S)NNc1ccccc1`, the survivor count under setting [6] is recorded as 3 of 6.
Regarding `CCCP(=S)(CCC)N(C)C`, the survivor count under setting [8] is listed as 1 of 6.
Consider `C=CCCCCCCCCC(=O)NCCN1CCOCC1`, for which the survivor count is 6 of 6 (dose: 200.0 mg/kg/injection, schedule: Q04DX003 (ip), vehicle: saline with Tween-80) and 0 of 6 under setting [8].
With `[Cl][Ho]([Cl])[Cl]`, under setting [6], the survivor count is on record as 0 of 3.
`NCCNCCNCCN1CC1`: the survivor count (dose: 40.0 mg/kg/injection, schedule: Q04DX002 (ip), vehicle: saline) is 0 of 3; the survivor count (dose: 100.0 mg/kg/injection, schedule: Q04DX002 (ip), vehicle: saline) was 0 of 3; the survivor count (dose: 200.0 mg/kg/injection, schedule: Q04DX002 (ip), vehicle: saline) is reported as 0 of 3; the survivor count (dose: 400.0 mg/kg/injection, schedule: Q04DX002 (ip), vehicle: saline) is reported as 0 of 3.
For `O=C1c2cccc3cccc(c23)C(=O)N1c1ncn[nH]1`, the survivor count under setting [9] is 4 of 4.
As for `O=C1OCC/C1=C\c1ccccc1`, the survivor count (dose: 400.0 mg/kg/injection, schedule: Q01DX001 (ip), vehicle: carboxymethylcellulose (CMC)) is recorded as 1 of 4.
As for `C/C(=N/NC(=O)CNC(=O)c1ccccc1)c1ccc2ccccc2c1`, the survivor count (dose: 400.0 mg/kg/injection, schedule: Q01DX009 (ip), vehicle: saline with Tween-80) is reported as 2 of 6.
With `NC(N)=NN=C(CO)CO`, the T/C (dose: 15.0 mg/kg/injection, schedule: Q01DX Z (ip), vehicle: methylcellulose (MC)) was 130 % of control. The survivor count reads like this: (dose: 15.0 mg/kg/injection, schedule: Q01DX Z (ip), vehicle: saline) 6 of 6; (dose: 60.0 mg/kg/injection, schedule: Q01DX Z (ip), vehicle: methylcellulose (MC)) 2 of 6; (dose: 120.0 mg/kg/injection, schedule: Q01DX Z (ip), vehicle: methylcellulose (MC)) 0 of 6; (dose: 240.0 mg/kg/injection, schedule: Q01DX Z (oral), vehicle: methylcellulose (MC)) 1 of 6; (dose: 480.0 mg/kg/injection, schedule: Q01DX Z (oral), vehicle: methylcellulose (MC)) 0 of 6.
Turning to `O=C1C(F)=C(N2CC2)C(=O)C(F)=C1N1CC1`, the survivor count reads like this: (dose: 12.5 mg/kg/injection, schedule: Q04DX003 (ip), vehicle: saline) 3 of 6; (dose: 21.0 mg/kg/injection, schedule: Q01DX009 (ip), vehicle: Klucel (hydroxypropylcellulose) (HPC)) 1 of 6; (dose: 25.0 mg/kg/injection, schedule: Q04DX003 (ip), vehicle: saline) 1 of 6; (dose: 50.0 mg/kg/injection, schedule: Q04DX003 (ip), vehicle: saline) 0 of 6; (dose: 100.0 mg/kg/injection, schedule: Q04DX003 (ip), vehicle: saline) 0 of 6.
Turning to `Cc1ccc(NC(=O)OC/C=C/c2ccccc2)c(Cl)c1`, the survivor count under setting [6] is listed as 6 of 6.
On the same count and under the same terms, in the case of `S=P(/C=C/c1ccccc1)(c1ccccc1)c1ccccc1` it was 6 of 6.
With `c1cc[c]([Sn]([S]c2nc3ccccc3s2)([c]2ccccc2)[c]2ccccc2)cc1`, the survivor count is reported as 0 of 3 (dose: 100.0 mg/kg/injection, schedule: Q04DX002 (ip), vehicle: saline with Tween-80); 0 of 3 (dose: 200.0 mg/kg/injection, schedule: Q04DX002 (ip), vehicle: saline with Tween-80); 0 of 3 (dose: 400.0 mg/kg/injection, schedule: Q04DX002 (ip), vehicle: saline with Tween-80).
In the case of `Cc1c(/C=N/NC(=O)CCCC(=O)N/N=C/c2c(C)n(C)n(-c3ccccc3)c2=O)c(=O)n(-c2ccccc2)n1C`, the survivor count is, setting by setting: under setting [9], 0 of 4; under setting [7], 0 of 4.
With `COc1nn(C)c(=O)c2ncccc12`, the survivor count runs as follows: (dose: 60.0 mg/kg/injection, schedule: Q01DX001 (ip), vehicle: carboxymethylcellulose (CMC)) 0 of 6; (dose: 75.0 mg/kg/injection, schedule: Q01DX001 (ip), vehicle: carboxymethylcellulose (CMC)) 0 of 6; (dose: 150.0 mg/kg/injection, schedule: Q01DX001 (ip), vehicle: carboxymethylcellulose (CMC)) 0 of 6; (dose: 300.0 mg/kg/injection, schedule: Q01DX001 (ip), vehicle: carboxymethylcellulose (CMC)) 0 of 6.
Turning to `Oc1c(Br)cc(Br)cc1/C=N/N=C/c1cc(Br)cc(Br)c1O`, the survivor count under setting [2] is given as 6 of 6.
For `Nc1nc(-c2ccccc2)c(CCCOc2ccccc2)c(=O)[nH]1`, the survivor count by setting is: (dose: 50.0 mg/kg/injection, schedule: Q01DX009 (ip), vehicle: gum acacia) 6 of 6; (dose: 200.0 mg/kg/injection, schedule: Q01DX009 (ip), vehicle: gum acacia) 6 of 6.
For the compound `NC(=O)c1cc(N2CC2)c([N+](=O)[O-])cc1[N+](=O)[O-]`, the survivor count (dose: 80.0 mg/kg/injection, schedule: Q01DX009 (ip), vehicle: saline) is 4 of 6.
With `c1cc2c(c(OCC3=NCCN3)c1)CCC2`, the survivor count reads like this: under setting [5], 3 of 6; under setting [1], 0 of 6; under setting [2], 0 of 6; under setting [6], 0 of 6.
Turning to `OC1OCCOC1O` (configuration not stated), the survivor count runs as follows: (dose: 600.0 mg/kg/injection, schedule: Q01DX009 (ip), vehicle: saline) 5 of 6; (dose: 800.0 mg/kg/injection, schedule: Q01DX009 (ip), vehicle: saline) 0 of 6.
Turning to `C[N+]1(CCl)CCOCC1`, the survivor count (dose: 300.0 mg/kg/injection, schedule: Q01DX001 (ip), vehicle: saline) is recorded as 0 of 6.

These data come from PubChem BioAssay AID248 (DTP/NCI, 2004).
